From paper PMC12052135
Results are given in words; binding and its absence hold for the method and conditions named. Binding seen in cells or lysates may run through a third protein. Some binding calls cover weakened binding; strength is not graded here. Where a sequence is shown, tags or fusion partners need not be part of it.

By UniProt entry, the sequences of proteins in these tests, tags left out. Residues count along the entry.
UniProt Q63524, residues 21-201: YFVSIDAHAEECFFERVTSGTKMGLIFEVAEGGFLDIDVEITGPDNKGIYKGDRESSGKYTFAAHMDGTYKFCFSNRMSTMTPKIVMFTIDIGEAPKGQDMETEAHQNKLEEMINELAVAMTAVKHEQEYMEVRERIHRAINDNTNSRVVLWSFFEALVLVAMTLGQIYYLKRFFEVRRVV

Molecular target: T1, GFP-CD59 (C94S) (UniProt P13987)
T1 sequence: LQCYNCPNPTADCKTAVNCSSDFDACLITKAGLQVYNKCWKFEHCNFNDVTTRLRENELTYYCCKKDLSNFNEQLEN
Assay: co-IP

TMED2 (from UniProt Q63524 21-201)
binding: binds

B1: TMED9 (protein, UniProt Q5I0E7 38-235)
chain: LYFHIGETEKKCFIEEIPDETMVIGNYRTQLYDKQREEYQPATPGLGMFVEVKDPEDKVILARQYGSEGRFTFTSHTPGEHQICLHSNSTKFSLFAGGMLRVHLDIQVGEHANDYAEIAAKDKLSELQLRVRQLVEQVEQIQKEQNYQRWREERFRQTSESTNQRVLWWSILQTLILVAIGVWQMRHLKSFFEAKKLV
modifications: N-linked glycosylation (LMW and sialylated HMW forms)
binding: binds

B2: calnexin (protein, UniProt P35565 21-591)
chain: HDGHDDDMIDIEDDLDDVIEEVEDSKSKSDTSTPPSPKVTYKAPVPTGEVYFADSFDRGSLSGWILSKAKKDDTDDEIAKYDGKWEVDEMKETKLPGDKGLVLMSRAKHHAISAKLNKPFLFDTKPLIVQYEVNFQNGIECGGAYVKLLSKTSELNLDQFHDKTPYTIMFGPDKCGEDYKLHFIFRHKNPKTGVYEEKHAKRPDADLKTYFTDKKTHLYTLILNPDNSFEILVDQSVVNSGNLLNDMTPPVNPSREIEDPEDRKPEDWDERPKIADPDAVKPDDWDEDAPSKIPDEEATKPEGWLDDEPEYIPDPDAEKPEDWDEDMDGEWEAPQIANPKCESAPGCGVWQRPMIDNPNYKGKWKPPMIDNPNYQGIWKPRKIPNPDFFEDLEPFRMTPFSAIGLELWSMTSDIFFDNFIISGDRRVVDDWANDGWGLKKAADGAAEPGVVGQMLEAAEERPWLWVVYILTVALPVFLVILFCCSGKKQSNAMEYKKTDAPQPDVKDEEGKEEEKNKGDEEEEEEKLEEKQKSDAEEDGGTGSQDEEDSKPKAEEDEILNRSPRNRKPRRE
binding: binds

B3: TMP21 (protein, UniProt Q63584 32-219)
chain: ISFHLPVNSRKCLREEIHKDLLVTGAYEITDQSGGAGGLRTHLKITDSAGHILYAKEDATKGKFAFTTEDYDMFEVCFESKGTGRIPDQLVILDMKHGVEAKNYEEIAKVEKLKPLEVELRRLEDLSESIVNDFAYMKKREEEMRDTNESTNTRVLYFSIFSMFCLIGLATWQVFYLRRFFKAKKLIE
binding: binds
